# Source: PubChem BioAssay AID504764 (Drosophila RNAi Screening Center, 2011)
# Aim: 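Genes whose knock-down alters Notch-dependent transcription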 (primary screen)
# System: Drosophila Kc167 cells
# Reagents: long dsRNA against Drosophila genes
# Timing: about 5 days (4 days dsRNA, then 24 h after transfection)
# Conditions: transfection of constitutively active membrane-tethered Notch lacking the extracellular domain, read 24 h later
# Detection: 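Firefly luciferase from an E(spl)m3 reporter with active Notch, plus control-promoter and uninduced reporter wells for normalisation; unnormalised counts, duplicate wells a and b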
# Direction: induced reporter light, run 1, well a and induced reporter light, run 1, well b: higher = more light from the Notch target reporter with active Notch; control promoter light, run 1, well a and control promoter light, run 1, well b: higher = more light from the viral control promoter (cell number, transfection, viability); uninduced reporter light, run 1, well a: higher = more light from the Notch target reporter without active Notch
# Active means: 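Hit if the duplicate-averaged log2 ratio of induced to control-promoter light gives a plate-wise z beyond ±2, or induced to uninduced beyond ±1.8; weak-control or discordant-duplicate wells dropped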
# Meaning of the calls: active = modifier hit (raised or lowered Notch signal); inactive = not a hit
# The deposit covers about 22,000 reagents; shown is a random part of those that have a named target and a result. Of all reagents, 403 (1.9%) were called active. 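Unnormalised raw counts per well; ratio z-scores behind the hit calls and whether each hit raises or lowers signal are not deposited.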 Reagents against one gene are numbered here. Names joined by + are all predicted targets of the reagent. Reagent sequences are not shown. Not given: the amount of reagent.
predicted target,reagent,"induced reporter light, run 1, well a","induced reporter light, run 1, well b","control promoter light, run 1, well a","control promoter light, run 1, well b","uninduced reporter light, run 1, well a",call
nocte,1,1.47e5,1.14e5,1.33e5,1.22e5,14440,inactive
rnh1,1,1.67e5,1.92e5,2.27e5,1.87e5,14782,inactive
CG11583,1,1.20e5,1.20e5,86685,32905,11260,inactive
CG10512,1,1.02e5,99125,1.01e5,75870,9345,inactive
DCTN5-p25,1,90995,93795,1.23e5,1.45e5,8090,inactive
CG4278,1,2.17e5,2.24e5,1.86e5,2.30e5,18980,inactive
CG34447,1,1.27e5,1.39e5,1.07e5,86105,9140,inactive
RpL12,1,57155,52755,41895,49280,3975,inactive
CG42337,1,1.02e5,1.08e5,99675,74550,8955,inactive
CG42337,2,13770,9705,9060,9575,2755,inactive
CG5569,1,1.86e5,1.63e5,1.94e5,1.91e5,13215,inactive
CG31816,1,55600,72600,66160,62825,6435,inactive
CG6071,1,1.42e5,1.20e5,1.49e5,1.28e5,6882,inactive
Ada3,1,62310,56800,88770,70300,11600,inactive
Ada3,2,72445,53335,68970,75650,9810,inactive
Tmem214,1,1.52e5,1.66e5,66335,91460,17720,inactive
Tmem214,2,1.11e5,1.27e5,75410,96350,16705,inactive
CG3176 + CR18166 + CG32817,1,64890,73400,97180,1.13e5,5465,inactive
CG3176 + CR18166 + CG32817,2,58260,61350,98225,78180,5095,inactive
CG3176 + CR18166 + CG32817,3,1.56e5,1.83e5,2.14e5,2.08e5,12595,inactive
CG18563,1,1.38e5,1.34e5,1.54e5,1.82e5,11000,inactive
cbt,1,1.67e5,1.78e5,2.25e5,2.11e5,19130,inactive
mib1,1,1.69e5,1.79e5,1.81e5,1.67e5,6685,inactive
shd,1,1.63e5,1.39e5,2.04e5,1.98e5,9435,inactive
gdrd,1,1.80e5,2.12e5,2.69e5,2.64e5,8530,inactive
CG5254,1,1.02e5,1.13e5,1.75e5,1.84e5,8710,inactive
CG5043,1,1.10e5,1.14e5,1.49e5,1.61e5,9885,inactive
Gk1,1,95205,1.01e5,1.76e5,2.32e5,7950,inactive
Gk1,2,1.57e5,2.08e5,2.51e5,2.88e5,11770,inactive
ppk18,1,1.14e5,1.51e5,70250,1.10e5,17855,inactive
mthl5,1,66840,61495,72280,55040,2665,inactive
CG34148 + P5CDh2,1,45150,34110,58980,54195,6720,inactive
Jon65Aiii,1,1.41e5,1.15e5,75155,27530,13205,inactive
Fitm,1,93605,1.25e5,67630,48915,10090,inactive
CG4270,1,1.13e5,1.12e5,1.17e5,63695,10065,inactive
Cpr62Ba,1,1.12e5,1.25e5,1.83e5,1.63e5,9520,inactive
CG1368,1,2.25e5,1.90e5,2.24e5,2.77e5,14600,inactive
Trm1,1,1.70e5,2.31e5,1.54e5,2.08e5,16460,inactive
Dhps,1,2.17e5,1.73e5,2.42e5,2.15e5,12190,inactive
CG15356,1,1.29e5,1.08e5,1.20e5,87190,9365,inactive
CG15357,1,1.10e5,1.07e5,96520,53505,7520,inactive
Spn42Dc,1,1.49e5,1.77e5,2.04e5,1.94e5,14295,inactive
CG32436,1,1.13e5,1.03e5,1.47e5,1.23e5,7410,inactive
CG32436,2,1.09e5,1.09e5,1.29e5,1.01e5,6990,inactive
CG31360,1,74520,50670,58465,69195,7460,inactive
CG43736 + CG33692 (retired record),1,1.37e5,1.35e5,3.32e5,3.37e5,10742,active
CG43736 + CG33692 (retired record),2,1.32e5,1.41e5,2.49e5,2.49e5,10625,inactive
noc,1,1.76e5,1.82e5,1.46e5,1.26e5,15085,inactive
Cortactin,1,1.83e5,1.97e5,2.15e5,2.33e5,15515,inactive
CG32720,1,75010,66100,83340,67770,6235,inactive
GstE1,1,65065,72100,89575,76195,6195,inactive
Tob,1,97345,95880,1.53e5,1.27e5,7165,inactive
CG10435,1,92215,89470,64040,52380,8225,inactive
Set2,1,55160,56700,43125,48750,3520,inactive
Tsp42Eb + CG30160,1,69710,1.02e5,1.28e5,1.37e5,4215,inactive
Tsp42Eb + CG30160,2,1.87e5,2.20e5,2.03e5,1.98e5,15490,inactive
BoYb,1,1.20e5,1.14e5,67610,94700,8075,inactive
CG43707,1,1.48e5,1.01e5,1.09e5,1.13e5,6930,inactive
CG43707,2,,,,,,inactive
CG9776,1,83575,1.24e5,49585,52185,7760,inactive
CG31189,1,1.68e5,1.49e5,1.67e5,1.62e5,11080,inactive
iPLA2-VIA,1,1.16e5,1.49e5,88785,48545,12010,inactive
CG6209,1,96485,1.20e5,1.35e5,1.04e5,9995,inactive
CG12213,1,1.38e5,1.19e5,82935,1.09e5,9150,inactive
CG12213,2,,,,,,inactive

Laid out differently: entries from further up.
{"predicted target":"Trm1","reagent":1,"induced reporter light, run 1, well a":1.70e5,"induced reporter light, run 1, well b":2.31e5,"control promoter light, run 1, well a":1.54e5,"control promoter light, run 1, well b":2.08e5,"uninduced reporter light, run 1, well a":16460,"call":"inactive"}
{"predicted target":"Dhps","reagent":1,"induced reporter light, run 1, well a":2.17e5,"induced reporter light, run 1, well b":1.73e5,"control promoter light, run 1, well a":2.42e5,"control promoter light, run 1, well b":2.15e5,"uninduced reporter light, run 1, well a":12190,"call":"inactive"}
{"predicted target":"CG15356","reagent":1,"induced reporter light, run 1, well a":1.29e5,"induced reporter light, run 1, well b":1.08e5,"control promoter light, run 1, well a":1.20e5,"control promoter light, run 1, well b":87190,"uninduced reporter light, run 1, well a":9365,"call":"inactive"}
{"predicted target":"CG15357","reagent":1,"induced reporter light, run 1, well a":1.10e5,"induced reporter light, run 1, well b":1.07e5,"control promoter light, run 1, well a":96520,"control promoter light, run 1, well b":53505,"uninduced reporter light, run 1, well a":7520,"call":"inactive"}
{"predicted target":"Spn42Dc","reagent":1,"induced reporter light, run 1, well a":1.49e5,"induced reporter light, run 1, well b":1.77e5,"control promoter light, run 1, well a":2.04e5,"control promoter light, run 1, well b":1.94e5,"uninduced reporter light, run 1, well a":14295,"call":"inactive"}
{"predicted target":"CG32436","reagent":1,"induced reporter light, run 1, well a":1.13e5,"induced reporter light, run 1, well b":1.03e5,"control promoter light, run 1, well a":1.47e5,"control promoter light, run 1, well b":1.23e5,"uninduced reporter light, run 1, well a":7410,"call":"inactive"}
{"predicted target":"CG32436","reagent":2,"induced reporter light, run 1, well a":1.09e5,"induced reporter light, run 1, well b":1.09e5,"control promoter light, run 1, well a":1.29e5,"control promoter light, run 1, well b":1.01e5,"uninduced reporter light, run 1, well a":6990,"call":"inactive"}
{"predicted target":"CG31360","reagent":1,"induced reporter light, run 1, well a":74520,"induced reporter light, run 1, well b":50670,"control promoter light, run 1, well a":58465,"control promoter light, run 1, well b":69195,"uninduced reporter light, run 1, well a":7460,"call":"inactive"}
{"predicted target":"CG43736 + CG33692 (retired record)","reagent":1,"induced reporter light, run 1, well a":1.37e5,"induced reporter light, run 1, well b":1.35e5,"control promoter light, run 1, well a":3.32e5,"control promoter light, run 1, well b":3.37e5,"uninduced reporter light, run 1, well a":10742,"call":"active"}
{"predicted target":"CG43736 + CG33692 (retired record)","reagent":2,"induced reporter light, run 1, well a":1.32e5,"induced reporter light, run 1, well b":1.41e5,"control promoter light, run 1, well a":2.49e5,"control promoter light, run 1, well b":2.49e5,"uninduced reporter light, run 1, well a":10625,"call":"inactive"}
